Source: article PMC2043495

T1: GST-TXNL1-C (UniProt O43396)
T1 sequence: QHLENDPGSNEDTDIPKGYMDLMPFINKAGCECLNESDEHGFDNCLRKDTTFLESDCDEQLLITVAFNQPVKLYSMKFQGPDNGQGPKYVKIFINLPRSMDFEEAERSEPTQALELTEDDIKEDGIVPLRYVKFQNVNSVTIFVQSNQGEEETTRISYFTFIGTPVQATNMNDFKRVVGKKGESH

T2: GST-TXNL1^C34,37S (UniProt O43396)
T2 sequence: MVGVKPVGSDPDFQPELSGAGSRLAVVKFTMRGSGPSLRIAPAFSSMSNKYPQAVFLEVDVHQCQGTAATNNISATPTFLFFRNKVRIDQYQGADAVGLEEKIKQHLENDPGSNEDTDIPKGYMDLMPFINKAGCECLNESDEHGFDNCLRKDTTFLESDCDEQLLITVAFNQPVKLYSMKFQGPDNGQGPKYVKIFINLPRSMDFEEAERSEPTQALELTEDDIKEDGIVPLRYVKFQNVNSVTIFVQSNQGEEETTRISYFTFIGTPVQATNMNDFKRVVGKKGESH

T3: GST-TXNL1 (UniProt O43396)
T3 sequence: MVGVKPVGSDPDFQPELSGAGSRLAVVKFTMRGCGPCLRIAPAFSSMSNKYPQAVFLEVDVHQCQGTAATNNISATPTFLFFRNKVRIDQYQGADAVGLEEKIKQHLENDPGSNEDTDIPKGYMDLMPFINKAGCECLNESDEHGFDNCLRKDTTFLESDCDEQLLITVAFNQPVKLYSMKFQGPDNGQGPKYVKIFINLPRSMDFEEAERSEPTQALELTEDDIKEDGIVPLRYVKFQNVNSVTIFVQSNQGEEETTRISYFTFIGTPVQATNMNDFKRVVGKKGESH

T4: GST-TXNL1-N (UniProt O43396)
T4 sequence: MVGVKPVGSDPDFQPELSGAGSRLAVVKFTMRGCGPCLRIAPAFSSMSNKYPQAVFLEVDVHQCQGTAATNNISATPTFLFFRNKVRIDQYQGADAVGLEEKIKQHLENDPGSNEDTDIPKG

T5: GST-GDI (bovine) (UniProt P21856)
T5 sequence: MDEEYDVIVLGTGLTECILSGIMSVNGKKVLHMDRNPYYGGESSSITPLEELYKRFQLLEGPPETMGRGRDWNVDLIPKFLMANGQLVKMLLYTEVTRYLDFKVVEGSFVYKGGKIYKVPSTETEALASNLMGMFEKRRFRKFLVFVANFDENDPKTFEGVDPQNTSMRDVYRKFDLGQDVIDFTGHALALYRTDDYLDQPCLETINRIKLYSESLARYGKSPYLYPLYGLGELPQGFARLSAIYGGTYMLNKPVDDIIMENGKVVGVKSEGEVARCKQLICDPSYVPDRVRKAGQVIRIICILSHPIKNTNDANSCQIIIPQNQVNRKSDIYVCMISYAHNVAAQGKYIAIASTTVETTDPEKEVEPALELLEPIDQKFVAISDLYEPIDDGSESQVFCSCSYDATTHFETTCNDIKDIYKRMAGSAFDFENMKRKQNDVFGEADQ


Assays:
GST-TXNL1-C = molecular target: T1, GST-TXNL1-C; assay: pull-down; pre-cleared rat liver cytosol with 60 nM GST fusion proteins, 2 h in HB; fusion proteins not pre-oxidized (untreated or pre-reduced with 1 mM DTT); glutathione-Sepharose beads, washed with EEB; western blotting; only the target purified
GST-TXNL1^C34,37S [1] = molecular target: T2, GST-TXNL1^C34,37S; assay: as above
GST-TXNL1 [2] = molecular target: T3, GST-TXNL1; assay: as above
GST-TXNL1-N = molecular target: T4, GST-TXNL1-N; assay: as above
GST-TXNL1^C34,37S [3] = molecular target: T2, GST-TXNL1^C34,37S; assay: pull-down; pre-cleared rat liver cytosol with 60 nM GST fusion proteins, 2 h in HB; fusion proteins pre-oxidized with 10 mM H2O2 (15 min, 25°C); glutathione-Sepharose beads, washed with EEB; western blotting; only the target purified
GST-TXNL1 [4] = molecular target: T3, GST-TXNL1; assay: as above
GST-GDI (bovine) = molecular target: T5, GST-GDI (bovine); assay: pull-down; Rab5 capture assay: 1 µM GST-GDI with 20 µg purified early endosomes, 20 min 30°C in EEB with 0.3 mM ATP, 3 mM GDP, with or without cytosol; endosomes removed on a sucrose gradient; GST-GDI recovered on glutathione-Sepharose beads; anti-Rab5 blot; only the target purified
[5] = molecular target: endogenous p38MAPK (rat liver cytosol) (rat (endogenous in rat liver)); assay: SEC; rat liver cytosol precipitated in 30% (NH4)2SO4, fractionated on a Superose 12 column; fractions analysed by western blotting

| Molecule | binding (GST-TXNL1^C34,37S [3]) | binding (GST-TXNL1 [4]) | binding (GST-GDI (bovine)) | binding [5] | binding (GST-TXNL1-C) | binding (GST-TXNL1^C34,37S [1]) | binding (GST-TXNL1 [2]) | binding (GST-TXNL1-N) |
| --- | --- | --- | --- | --- | --- | --- | --- | --- |
| early endosomal Rab5 | – | – | binds | – | – | – | – | – |
| endogenous TXNL1 (rat liver cytosol) (protein, UniProt Q920J4 1-289) MVGVKPVGSDPDFQPELSGAGSRLAVVKFTMRGCGPCLRIAPAFSSMSNKYPQAVFLEVDVHQCQGTAATNNISATPTFLFFRNKVRIDQYQGADAVGLEEKIKQHLENDPGSNEDTDIPKGYMDLMPFINKAGCECLNESDEHGFDNCLRKDLSFLESDCDEQLLITVAFNQPVKLYSMKFQGPDNGQGPKYVKIFINLPRSMDFEEAERSEPTQALELTEDDIKEDGIVPLRYVKFQNVNSVTLFVQSNQGEEETTRISYFTFIGTPVQATNMNDFKRVVGKKGESH | – | – | – | binds | – | – | – | – |

Further lines, with some results ahead:

| binding (GST-TXNL1^C34,37S [3]) | binding (GST-TXNL1 [4]) | binding (GST-GDI (bovine)) | binding [5] | Molecule | binding (GST-TXNL1-C) | binding (GST-TXNL1^C34,37S [1]) | binding (GST-TXNL1 [2]) | binding (GST-TXNL1-N) |
| --- | --- | --- | --- | --- | --- | --- | --- | --- |
| binds | binds | – | – | cytosolic GDI (rat liver cytosol) | no binding (tested: 60 nM GST fusion protein) | binds | binds | no binding (tested: 60 nM GST fusion protein) |
| binds | binds | – | – | cytosolic Rab5 (rat liver cytosol) | – | no binding (only without pre-oxidation by H2O2) | no binding (only without pre-oxidation by H2O2) | – |

Results are given in words; binding and its absence hold for the method and conditions named. For part of these data: A result given as binding can be weak or reduced; the word gives no strength. For part of these data: Binding seen in cells or lysates may run through a third protein. For part of these data: Tags and fused reporters may be left off the sequences shown.
